# Data from PMC8384837.
# Where a chain is given by its changes, count along the chain named. Some of the results follow. For some of these results: At the low end of the ranking, values are background and their order means little. For some of these results: The source does not settle which construct or isoform was used.
# Assays:
# Conditions in all cases: yeast three-hybrid, YBZ-1, SC-Leu-His + 0.5 mM 3-AT, 4 days
# [1] = molecular target: T1, PUM1 PUF domain R3-THE R4-TFR R7-NPG C935T + R936H + Q939E + N971T + H972F + Q975R + S1079N + N1080P + E1083G (UniProt Q14671)
# T1 sequence: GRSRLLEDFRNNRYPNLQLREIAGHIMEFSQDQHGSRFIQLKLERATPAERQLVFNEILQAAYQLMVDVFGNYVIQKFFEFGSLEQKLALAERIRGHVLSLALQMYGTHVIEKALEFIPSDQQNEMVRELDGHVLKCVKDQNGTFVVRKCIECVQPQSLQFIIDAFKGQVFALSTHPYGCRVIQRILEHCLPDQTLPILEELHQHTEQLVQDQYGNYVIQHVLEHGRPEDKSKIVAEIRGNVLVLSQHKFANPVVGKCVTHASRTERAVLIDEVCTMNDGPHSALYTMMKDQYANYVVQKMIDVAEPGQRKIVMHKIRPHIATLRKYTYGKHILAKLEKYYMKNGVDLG
# [2] = molecular target: T2, PUM1 PUF domain R6-SWD R7-NPG N1043S + Y1044W + Q1047D + S1079N + N1080P + E1083G (Homo sapiens) (UniProt Q14671)
# T2 sequence: T1 sequence with T108C, H109R, E112Q, T144N, F145H, R148Q, N216S, Y217W, Q220D
# [3] = molecular target: T3, PUM1 PUF domain R3-THE R4-TFR R7-NPG C935T + R936H + Q939E + N971T + H972F + Q975R + S1079N + N1080P + E1083G (Homo sapiens) (UniProt Q14671)
# T3 sequence: T1 sequence
# [4] = molecular target: T4, PUM1 PUF domain R5-PHQ R6-SWD C1007P + R1008H + N1043S + Y1044W + Q1047D (UniProt Q14671)
# T4 sequence: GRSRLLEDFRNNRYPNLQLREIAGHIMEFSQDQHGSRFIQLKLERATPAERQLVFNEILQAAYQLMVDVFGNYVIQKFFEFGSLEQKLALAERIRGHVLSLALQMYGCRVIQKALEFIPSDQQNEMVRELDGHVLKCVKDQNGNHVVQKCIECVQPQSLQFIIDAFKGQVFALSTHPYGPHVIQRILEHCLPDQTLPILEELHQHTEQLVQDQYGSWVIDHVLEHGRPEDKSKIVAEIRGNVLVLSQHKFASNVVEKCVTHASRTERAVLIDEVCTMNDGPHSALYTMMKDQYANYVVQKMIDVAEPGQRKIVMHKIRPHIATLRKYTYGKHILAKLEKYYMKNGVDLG
sequence,measurement,setting,value
GGCUAGAACUAGUGGAUCCCCCGGCGCCCGGCGGCUCGAGCCCGGGUAAGACUACGUGGUCUGCAUGCCGCCGGGCGCCAUGCCUGCAGGUCGACUCUAGAAAACAUG,binding signal (log2 enrichment (interaction score)),[1],-2.49
same,binding signal (log2 enrichment (interaction score)),[2],-1.57
GGCUAGAACUAGUGGAUCCCCCGGCGCCCGGCGGCUCGAGCCCGGGUAAGCUUUAAACGUCUGCAUGCCGCCGGGCGCCAUGCCUGCAGGUCGACUCUAGAAAACAUG,binding signal (log2 enrichment (interaction score)),[1],-2.01
GGCUAGAACUAGUGGAUCCCCCGGCGCCCGGCGGCUCGAGCCCGGGUAAGUUGUAUGGGUCUGCAUGCCGCCGGGCGCCAUGCCUGCAGGUCGACUCUAGAAAACAUG,binding signal (log2 enrichment (interaction score)),[3],-1.66
same,binding signal (log2 enrichment (interaction score)),[2],-1.07
GGCUAGAACUAGUGGAUCCCCCGGCGCCCGGCGGCUCGAGCCCGGGUAAGUAUGAAUAGUCUGCAUGCCGCCGGGCGCCAUGCCUGCAGGUCGACUCUAGAAAACAUG,binding signal (log2 enrichment (interaction score)),[3],-1.66
same,binding signal (log2 enrichment (interaction score)),[4],< -7.6
GGCUAGAACUAGUGGAUCCCCCGGCGCCCGGCGGCUCGAGCCCGGGUAAGAAUUGGACGUCUGCAUGCCGCCGGGCGCCAUGCCUGCAGGUCGACUCUAGAAAACAUG,binding signal (log2 enrichment (interaction score)),[1],-2.27
same,binding signal (log2 enrichment (interaction score)),[2],-1.54
GGCUAGAACUAGUGGAUCCCCCGGCGCCCGGCGGCUCGAGCCCGGGUAAGUUUCGAUUGUCUGCAUGCCGCCGGGCGCCAUGCCUGCAGGUCGACUCUAGAAAACAUG,binding signal (log2 enrichment (interaction score)),[1],-2.7
GGCUAGAACUAGUGGAUCCCCCGGCGCCCGGCGGCUCGAGCCCGGGUAAGUUAAUCUCGUCUGCAUGCCGCCGGGCGCCAUGCCUGCAGGUCGACUCUAGAAAACAUG,binding signal (log2 enrichment (interaction score)),[3],< -0.76
same,binding signal (log2 enrichment (interaction score)),[2],-1.33
GGCUAGAACUAGUGGAUCCCCCGGCGCCCGGCGGCUCGAGCCCGGGUAAGGGGAACUUGUCUGCAUGCCGCCGGGCGCCAUGCCUGCAGGUCGACUCUAGAAAACAUG,binding signal (log2 enrichment (interaction score)),[3],< -1.8
same,binding signal (log2 enrichment (interaction score)),[4],< -6.79
same,binding signal (log2 enrichment (interaction score)),[2],-1.35
GGCUAGAACUAGUGGAUCCCCCGGCGCCCGGCGGCUCGAGCCCGGGUAAGCUCAGAUGGUCUGCAUGCCGCCGGGCGCCAUGCCUGCAGGUCGACUCUAGAAAACAUG,binding signal (log2 enrichment (interaction score)),[3],-1.05
same,binding signal (log2 enrichment (interaction score)),[2],-1.37
GGCUAGAACUAGUGGAUCCCCCGGCGCCCGGCGGCUCGAGCCCGGGUAAGUUGUCGUCGUCUGCAUGCCGCCGGGCGCCAUGCCUGCAGGUCGACUCUAGAAAACAUG,binding signal (log2 enrichment (interaction score)),[3],< -0.92
same,binding signal (log2 enrichment (interaction score)),[2],-0.59
GGCUAGAACUAGUGGAUCCCCCGGCGCCCGGCGGCUCGAGCCCGGGUAAGCUGAAAGAGUCUGCAUGCCGCCGGGCGCCAUGCCUGCAGGUCGACUCUAGAAAACAUG,binding signal (log2 enrichment (interaction score)),[3],< -1.39
same,binding signal (log2 enrichment (interaction score)),[4],< -7.67
same,binding signal (log2 enrichment (interaction score)),[2],-1.79
GGCUAGAACUAGUGGAUCCCCCGGCGCCCGGCGGCUCGAGCCCGGGUAAGUGGCAGUAGUCUGCAUGCCGCCGGGCGCCAUGCCUGCAGGUCGACUCUAGAAAACAUG,binding signal (log2 enrichment (interaction score)),[1],-2.74
same,binding signal (log2 enrichment (interaction score)),[4],< -7.81
GGCUAGAACUAGUGGAUCCCCCGGCGCCCGGCGGCUCGAGCCCGGGUAAGUGGUGAACGUCUGCAUGCCGCCGGGCGCCAUGCCUGCAGGUCGACUCUAGAAAACAUG,binding signal (log2 enrichment (interaction score)),[1],-2.02
GGCUAGAACUAGUGGAUCCCCCGGCGCCCGGCGGCUCGAGCCCGGGUAAGUUUUAAUAGUCUGCAUGCCGCCGGGCGCCAUGCCUGCAGGUCGACUCUAGAAAACAUG,binding signal (log2 enrichment (interaction score)),[1],-2.52
same,binding signal (log2 enrichment (interaction score)),[4],-7.67
GGCUAGAACUAGUGGAUCCCCCGGCGCCCGGCGGCUCGAGCCCGGGUAAGUCGACGAGGUCUGCAUGCCGCCGGGCGCCAUGCCUGCAGGUCGACUCUAGAAAACAUG,binding signal (log2 enrichment (interaction score)),[1],-2.33
GGCUAGAACUAGUGGAUCCCCCGGCGCCCGGCGGCUCGAGCCCGGGUAAGUUCAUCUCGUCUGCAUGCCGCCGGGCGCCAUGCCUGCAGGUCGACUCUAGAAAACAUG,binding signal (log2 enrichment (interaction score)),[1],-2.35
GGCUAGAACUAGUGGAUCCCCCGGCGCCCGGCGGCUCGAGCCCGGGUAAGUUUCAAAAGUCUGCAUGCCGCCGGGCGCCAUGCCUGCAGGUCGACUCUAGAAAACAUG,binding signal (log2 enrichment (interaction score)),[1],-2.01
same,binding signal (log2 enrichment (interaction score)),[4],-7.8
GGCUAGAACUAGUGGAUCCCCCGGCGCCCGGCGGCUCGAGCCCGGGUAAGUAUACCUAGUCUGCAUGCCGCCGGGCGCCAUGCCUGCAGGUCGACUCUAGAAAACAUG,binding signal (log2 enrichment (interaction score)),[1],< -2.24
same,binding signal (log2 enrichment (interaction score)),[4],-7
GGCUAGAACUAGUGGAUCCCCCGGCGCCCGGCGGCUCGAGCCCGGGUAAGGGGAAGAAGUCUGCAUGCCGCCGGGCGCCAUGCCUGCAGGUCGACUCUAGAAAACAUG,binding signal (log2 enrichment (interaction score)),[1],-2.29
same,binding signal (log2 enrichment (interaction score)),[4],-7.31
same,binding signal (log2 enrichment (interaction score)),[2],-0.79
GGCUAGAACUAGUGGAUCCCCCGGCGCCCGGCGGCUCGAGCCCGGGUAAGCUGAAGAAGUCUGCAUGCCGCCGGGCGCCAUGCCUGCAGGUCGACUCUAGAAAACAUG,binding signal (log2 enrichment (interaction score)),[3],< -1.74
same,binding signal (log2 enrichment (interaction score)),[4],< -8.34
GGCUAGAACUAGUGGAUCCCCCGGCGCCCGGCGGCUCGAGCCCGGGUAAGAUGAAGCCGUCUGCAUGCCGCCGGGCGCCAUGCCUGCAGGUCGACUCUAGAAAACAUG,binding signal (log2 enrichment (interaction score)),[1],-2.88
same,binding signal (log2 enrichment (interaction score)),[4],< -7.42
same,binding signal (log2 enrichment (interaction score)),[2],-1.89
GGCUAGAACUAGUGGAUCCCCCGGCGCCCGGCGGCUCGAGCCCGGGUAAGGGGUCGUAGUCUGCAUGCCGCCGGGCGCCAUGCCUGCAGGUCGACUCUAGAAAACAUG,binding signal (log2 enrichment (interaction score)),[1],-2.15
same,binding signal (log2 enrichment (interaction score)),[4],< -8.13
GGCUAGAACUAGUGGAUCCCCCGGCGCCCGGCGGCUCGAGCCCGGGUAAGUUUUACCCGUCUGCAUGCCGCCGGGCGCCAUGCCUGCAGGUCGACUCUAGAAAACAUG,binding signal (log2 enrichment (interaction score)),[1],< -2
GGCUAGAACUAGUGGAUCCCCCGGCGCCCGGCGGCUCGAGCCCGGGUAAGUUGAAUUCGUCUGCAUGCCGCCGGGCGCCAUGCCUGCAGGUCGACUCUAGAAAACAUG,binding signal (log2 enrichment (interaction score)),[4],< -7.27
GGCUAGAACUAGUGGAUCCCCCGGCGCCCGGCGGCUCGAGCCCGGGUAAGAGGGAGACGUCUGCAUGCCGCCGGGCGCCAUGCCUGCAGGUCGACUCUAGAAAACAUG,binding signal (log2 enrichment (interaction score)),[4],< -8
GGCUAGAACUAGUGGAUCCCCCGGCGCCCGGCGGCUCGAGCCCGGGUAAGUAGAAGGGGUCUGCAUGCCGCCGGGCGCCAUGCCUGCAGGUCGACUCUAGAAAACAUG,binding signal (log2 enrichment (interaction score)),[4],-6.25
GGCUAGAACUAGUGGAUCCCCCGGCGCCCGGCGGCUCGAGCCCGGGUAAGUCUACAUAGUCUGCAUGCCGCCGGGCGCCAUGCCUGCAGGUCGACUCUAGAAAACAUG,binding signal (log2 enrichment (interaction score)),[4],-8.34
GGCUAGAACUAGUGGAUCCCCCGGCGCCCGGCGGCUCGAGCCCGGGUAAGGGUAAAGAGUCUGCAUGCCGCCGGGCGCCAUGCCUGCAGGUCGACUCUAGAAAACAUG,binding signal (log2 enrichment (interaction score)),[4],-7.26
GGCUAGAACUAGUGGAUCCCCCGGCGCCCGGCGGCUCGAGCCCGGGUAAGUGAACGUCGUCUGCAUGCCGCCGGGCGCCAUGCCUGCAGGUCGACUCUAGAAAACAUG,binding signal (log2 enrichment (interaction score)),[4],-7.48
GGCUAGAACUAGUGGAUCCCCCGGCGCCCGGCGGCUCGAGCCCGGGUAAGUUGAGCUAGUCUGCAUGCCGCCGGGCGCCAUGCCUGCAGGUCGACUCUAGAAAACAUG,binding signal (log2 enrichment (interaction score)),[4],-7.3
GGCUAGAACUAGUGGAUCCCCCGGCGCCCGGCGGCUCGAGCCCGGGUAAGUGAAACAAGUCUGCAUGCCGCCGGGCGCCAUGCCUGCAGGUCGACUCUAGAAAACAUG,binding signal (log2 enrichment (interaction score)),[4],< -7.5
GGCUAGAACUAGUGGAUCCCCCGGCGCCCGGCGGCUCGAGCCCGGGUAAGUGUACACCGUCUGCAUGCCGCCGGGCGCCAUGCCUGCAGGUCGACUCUAGAAAACAUG,binding signal (log2 enrichment (interaction score)),[4],-6.95
GGCUAGAACUAGUGGAUCCCCCGGCGCCCGGCGGCUCGAGCCCGGGUAAGUUGUAACCGUCUGCAUGCCGCCGGGCGCCAUGCCUGCAGGUCGACUCUAGAAAACAUG,binding signal (log2 enrichment (interaction score)),[4],< -7.36
GGCUAGAACUAGUGGAUCCCCCGGCGCCCGGCGGCUCGAGCCCGGGUAAGCGACAAAAGUCUGCAUGCCGCCGGGCGCCAUGCCUGCAGGUCGACUCUAGAAAACAUG,binding signal (log2 enrichment (interaction score)),[4],< -7.42

# Quoted at random: 3 entries already listed, in no set order.
sequence,measurement,setting,value
GGCUAGAACUAGUGGAUCCCCCGGCGCCCGGCGGCUCGAGCCCGGGUAAGUUGUCGUCGUCUGCAUGCCGCCGGGCGCCAUGCCUGCAGGUCGACUCUAGAAAACAUG,binding signal (log2 enrichment (interaction score)),[2],-0.59
GGCUAGAACUAGUGGAUCCCCCGGCGCCCGGCGGCUCGAGCCCGGGUAAGCUGAAGAAGUCUGCAUGCCGCCGGGCGCCAUGCCUGCAGGUCGACUCUAGAAAACAUG,binding signal (log2 enrichment (interaction score)),[4],< -8.34
GGCUAGAACUAGUGGAUCCCCCGGCGCCCGGCGGCUCGAGCCCGGGUAAGUCUACAUAGUCUGCAUGCCGCCGGGCGCCAUGCCUGCAGGUCGACUCUAGAAAACAUG,binding signal (log2 enrichment (interaction score)),[4],-8.34
